# Data reported in PubChem BioAssay AID1671190 (National Center for Advancing Translational Sciences (NCATS), 2021).
# Sequences of proteins named here, by UniProt entry; tags and fusion partners are left off. A change or cut given only in a name is not applied to a line headed by its entry.
# UniProt P18054: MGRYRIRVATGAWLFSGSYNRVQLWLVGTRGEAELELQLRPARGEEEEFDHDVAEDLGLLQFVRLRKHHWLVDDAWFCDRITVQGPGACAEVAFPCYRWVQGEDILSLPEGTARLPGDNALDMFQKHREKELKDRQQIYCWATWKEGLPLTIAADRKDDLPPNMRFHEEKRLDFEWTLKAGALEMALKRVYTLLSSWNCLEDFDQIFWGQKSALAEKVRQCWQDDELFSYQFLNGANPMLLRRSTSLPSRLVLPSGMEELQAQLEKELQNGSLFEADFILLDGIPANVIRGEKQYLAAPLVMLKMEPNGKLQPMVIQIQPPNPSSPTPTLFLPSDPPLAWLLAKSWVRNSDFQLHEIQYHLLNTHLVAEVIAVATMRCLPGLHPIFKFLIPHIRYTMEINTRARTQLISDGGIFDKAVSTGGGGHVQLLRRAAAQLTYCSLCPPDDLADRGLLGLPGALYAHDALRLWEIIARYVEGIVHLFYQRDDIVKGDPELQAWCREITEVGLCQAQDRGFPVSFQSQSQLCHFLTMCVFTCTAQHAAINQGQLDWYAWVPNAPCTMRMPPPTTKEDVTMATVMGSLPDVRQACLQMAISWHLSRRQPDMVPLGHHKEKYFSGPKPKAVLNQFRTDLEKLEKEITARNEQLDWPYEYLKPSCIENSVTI
# The whole screen tested about 580,000 compounds, of which about 6,100 (1.1%) were called active. Inconclusive means that the source gave no clear call. Such entries were picked first, then a sample of the others. Calls follow the shape of the dose curve; as a rule, active = well fitted inhibition curve with a large enough effect; inconclusive = small, poorly fitted or top-dose-only effect, or another doubt; inactive = no such curve, though single readings can be large or run the other way. A potency beside an inconclusive call is a rough fit, not a confirmed value.
# Biological target: Polyunsaturated fatty acid lipoxygenase ALOX12 (Homo sapiens) (UniProt P18054)
# Experiment: Primary qHTS assay for inhibitors of human arachidonate 12S-lipoxygenase (ALOX12): Round 2
# Settings: purified 12hLO, xylenol orange hydroperoxide absorbance; activity change, negative = inhibition: at 108 µM (top of the series) unless noted
# Outline: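 Hydroperoxide product was detected by ferrous iron/xylenol orange as the 573 to 405 nm absorbance ratio. Arachidonic acid at 40 uM (final) was turned over for 30 min at room temperature by 150 nM human 12hLO, pH 7.0 Hepes buffer, after 15 min compound preincubation.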
# % is scaled to controls: 0 for no effect and ±100 for the full control effect; potency is read from the fitted curve at half-maximal effect.
SMILES,Potency,"activity change, negative = inhibition"
COc1ccc(C(=O)/C=C/c2ccc(C)cc2)cc1,"inconclusive: 89.1 µM [inhibitor, single point]",–
COc1ccc(CCNC(=O)CSc2nnc(-c3cccc(C)c3)o2)cc1OC,–,inactive: -10.8%
Cn1c(=O)c2cc(NC(=O)Cc3ccccc3F)ccc2n1C/C=C/c1ccccc1,–,inactive: -18%
CCOc1ccc(C(=O)NC(=S)Nc2cccnc2)cc1[N+](=O)[O-],–,inactive: -0.877%
O=C1NCc2ccccc2CC12CCN(Cc1ccc(Cl)cc1)C2 (stereo unspecified),active: 22.4 µM,–
CCC1=NN2C(=N)/C(=C\c3ccc(OCCOc4ccccc4)c(OC)c3)C(=O)N=C2S1,"inconclusive: 28.2 µM [inhibitor, single point]",–
COc1cc(/C=N/NC(=O)c2ccc3ccccc3c2)ccc1Oc1ccc([N+](=O)[O-])cn1,"inconclusive: 44.7 µM [inhibitor, partial curve]",–
CC(=O)N1CCN(c2ccc(NC(=O)c3ccccc3Cl)cc2)CC1,"inconclusive: 126 µM [inhibitor, single point]",–
Cc1ccc(NC(=O)C2CCN(c3cnc4ccccc4n3)CC2)cc1F,"inconclusive: 44.7 µM [inhibitor, partial curve]",–
CCOC(=O)c1ccc(NC(=O)N2CCc3c(nc4cc[nH]n4c3=O)C2)cc1,"inconclusive: 28.2 µM [inhibitor, partial curve]",–
COc1ccccc1C(=O)N/C(=C/c1ccc2c(c1)OCO2)C(=O)Nc1ccc(C(=O)O)cc1,"inconclusive: 35.5 µM [inhibitor, partial curve, poor fit]",–
CCC1(C)Cc2ccccc2-c2nc(NCCO)n(-c3ccccc3)c(=O)c21 (stereo unspecified),"inconclusive: 63.1 µM [inhibitor, partial curve, poor fit]",–
COc1ccc(C2/C(=C(/O)c3ccc(C)cc3)C(=O)C(=O)N2CCCN2CCOCC2)cc1 (stereo unspecified),"inconclusive: 25.1 µM [inhibitor, partial curve, poor fit]",–
CC(NC(=O)CSc1cc(C(=O)NC2CC2)c2ccccc2n1)C1CC1 (stereo unspecified),"inconclusive: 39.8 µM [inhibitor, partial curve, poor fit]",–
CCOc1ccc2c(=O)c(Oc3ccccc3OC)c(C)oc2c1,–,inactive: 12.5%
Nc1ncnc(Nc2ccc(Cl)c(Cl)c2)c1[N+](=O)[O-],–,inactive: 33%
Cc1occc1C(=O)NCCCCc1ccccc1,"inconclusive: 14.1 µM [inhibitor, partial curve, poor fit]",–
O=[N+]([O-])c1ccc(Oc2ccc(-c3cnc4ccccc4n3)cc2[N+](=O)[O-])cc1,–,inactive: -2.22%
Cc1cccc(NC(=O)c2n[nH]nc2Nc2ccc(Cl)cc2)c1C,–,inactive: 9.88%
COc1cccc(-c2nn(-c3ccc(C)cc3)cc2C(=O)NCC(c2cccs2)N2CCOCC2)c1 (stereo unspecified),"inconclusive: 112 µM [inhibitor, partial curve, poor fit]",–
O=[N+]([O-])c1ccc2c(c1)CNc1ccccc1O2,–,inactive: -0.238%
N#C/C(=C\c1cccnc1)C(=O)Nc1ccc(Cl)cc1,"inconclusive: 50.1 µM [inhibitor, partial curve, poor fit]",–

SMILES,Potency,"activity change, negative = inhibition"
NC(=O)c1ccc(NC(=O)COc2ccc([N+](=O)[O-])cc2Cl)cc1,"inconclusive: 79.4 µM [inhibitor, single point]",–
CS(=O)(=O)N1CCCN(Cc2ccccc2C#N)CCNC(=O)CC1c1ccccc1 (stereo unspecified),–,inactive: 40.8%
Cc1ccc(CNC(=O)c2ccc(OC3CCN(S(C)(=O)=O)CC3)c(Cl)c2)s1,"inconclusive: 100 µM [inhibitor, partial curve, poor fit]",–
CC(C)(C)c1ccc(C(=O)NC(Nc2ccc(I)cc2)C(Cl)(Cl)Cl)cc1 (stereo unspecified),"inconclusive: 22.4 µM [inhibitor, partial curve, poor fit]",–
O=C(c1cccc(Br)c1)N(Cc1ccc2cc[nH]c2c1)C1CC1,"inconclusive: 44.7 µM [inhibitor, partial curve, poor fit]",–
O/N=C/c1cc(Br)ccc1OCc1ccc(F)cc1,–,inactive: 0%
CCOC(=O)C1=C(c2ccccc2)NC(SCC(=O)Nc2ccc(C)cc2)=C(C#N)C1c1ccco1 (stereo unspecified),"inconclusive: 112 µM [inhibitor, partial curve, poor fit]",–
CC(=O)Nc1nc(CC(C)C)cc(-c2ccco2)c1C#N,active: 12.6 µM,–
Nc1nccnc1C(=O)NCCc1ccco1,–,inactive: 36.6%
COCCn1c(Sc2ccc(C)cc2)nc2c1c(=O)[nH]c(=O)n2C,"inconclusive: 50.1 µM [inhibitor, single point]",–
Cc1ccc(C)c(CN2CCSCC2)c1,"inconclusive: 0.631 µM [inhibitor, full curve, poor fit]",–
COc1ccc(-c2cc(C3CCN(Cc4cccc(C(F)(F)F)c4)CC3)[nH]n2)cc1,"inconclusive: 44.7 µM [inhibitor, partial curve, poor fit]",–
COc1cc(/C=C(/C#N)c2ccccn2)ccc1OCc1cccc(C(F)(F)F)c1,active: 6.31 µM,–
COc1ncccc1CN1CC[C@@H]2OCC(=O)N(c3ccccc3)[C@H]2CC1,"inconclusive: 7.08 µM [inhibitor, full curve]",–
COc1cc(CNCc2ccco2)ccc1OCc1ccccc1C,"inconclusive: 141 µM [inhibitor, partial curve, poor fit]",–
O=S1(=O)CC(N2CCN(CCO)CC2)CN1Cc1cn(Cc2ccc(F)cc2)nn1 (stereo unspecified),"inconclusive: 31.6 µM [inhibitor, partial curve]",–
Cc1ccc(S(=O)(=O)Oc2ccc3c(C(F)(F)F)cc(=O)oc3c2)cc1,–,inactive: -16.7%
CCC(=O)Nc1ccccc1C(=O)OCC(=O)c1cccc2ccccc12,–,inactive: 0%
NC(=O)/C(=C\c1ccco1)NC(=O)c1ccco1,–,inactive: -3.57%
COc1ccc(NC(=O)c2sc3nc(C)cc(C)c3c2N)cc1,"inconclusive: 44.7 µM [inhibitor, partial curve, poor fit]",–
O=C(Nc1sc2c(c1C(=O)O)CCCC2)c1cccnc1,–,inactive: 6.06%
COc1ccc(-c2oc3ccc(-c4ccc5c(c4)OCO5)cc3c2-c2ccc(OC)nc2)cc1,"inconclusive: 5.01 µM [inhibitor, full curve, poor fit]",–

# Another view of part of the listing above:
SMILES | Potency | activity change, negative = inhibition
COc1ncccc1CN1CC[C@@H]2OCC(=O)N(c3ccccc3)[C@H]2CC1 | inconclusive: 7.08 µM [inhibitor, full curve] | –
COc1cc(CNCc2ccco2)ccc1OCc1ccccc1C | inconclusive: 141 µM [inhibitor, partial curve, poor fit] | –
O=S1(=O)CC(N2CCN(CCO)CC2)CN1Cc1cn(Cc2ccc(F)cc2)nn1 (stereo unspecified) | inconclusive: 31.6 µM [inhibitor, partial curve] | –
Cc1ccc(S(=O)(=O)Oc2ccc3c(C(F)(F)F)cc(=O)oc3c2)cc1 | – | inactive: -16.7%
CCC(=O)Nc1ccccc1C(=O)OCC(=O)c1cccc2ccccc12 | – | inactive: 0%
NC(=O)/C(=C\c1ccco1)NC(=O)c1ccco1 | – | inactive: -3.57%

# The results go on:

SMILES,Potency,"activity change, negative = inhibition"
Cc1ccc2c(c1)N=C(c1ccc(Cl)cc1)CO2,"inconclusive: 25.1 µM [inhibitor, partial curve, poor fit]",–
O=Nc1c(-c2c(O)[nH]c3cc(Br)ccc23)[nH]c2ccccc12,inactive,–
CC1c2ccsc2CCN1C(=O)CNC(=O)c1ccc(Cl)cc1 (stereo unspecified),"inconclusive: 70.8 µM [inhibitor, partial curve, poor fit]",–
N[C@@H](Cc1ccccc1)c1nnc2sc(SCc3ccccc3)nn12,"inconclusive: 50.1 µM [inhibitor, partial curve, poor fit]",–
O=C1OCC2(CCN(Cc3ccc4c(c3)CCO4)C2)N1Cc1ccccc1 (stereo unspecified),active: 56.2 µM,–
CC(NC(=O)CNC(=O)C1CCC(CNS(=O)(=O)c2ccc(Cl)cc2)CC1)c1ccccc1 (stereo unspecified),"inconclusive: 79.4 µM [inhibitor, partial curve, poor fit]",–
COCCN1C(=O)N(c2cccc(C)c2)C(=O)C1CC(=O)Nc1cc(OC)cc(OC)c1 (stereo unspecified),"inconclusive: 15.8 µM [inhibitor, full curve, poor fit]",–
COC(=O)c1ccc(C(=O)NC2CCCc3c2cnn3-c2cc(F)cc(F)c2)nc1 (stereo unspecified),–,inactive: -14.4%
CC(C)Oc1ccc(C(=O)N2CCN(c3nc4sc5c(c4c(=O)n3C)CCCC5)CC2)cc1,"inconclusive: 141 µM [inhibitor, partial curve, poor fit]",–
COc1ccc(N2CCN(C3CCCN(C(=O)C(C)(C)N)C3)CC2)cc1 (stereo unspecified),"inconclusive: 11.2 µM [inhibitor, full curve]",–
O=S(=O)(NC[C@H]1O[C@@H](CO)[C@@H](O)[C@H]1N1CCN(c2ccccn2)CC1)c1ccc(Cl)cc1,active: 17.8 µM,–
O=C1CO[C@H]2CCN(Cc3ccncc3Cl)CC[C@@H]2N1c1ccccc1,"inconclusive: 35.5 µM [inhibitor, full curve, poor fit]",–
COCCCNC(=O)c1cc2c(=O)n3cccc(C)c3nc2s1,"inconclusive: 35.5 µM [inhibitor, single point]",–
CCCCNC(=O)c1ccc(F)cc1,–,inactive: 25.8%
CC(=O)Nc1ccc(S(=O)(=O)N(C)CC(=O)OCC(=O)N2CCc3ccccc32)cc1,"inconclusive: 89.1 µM [inhibitor, partial curve, poor fit]",–
Cn1c(CCN2CCCC2)nc2cc(NS(=O)(=O)c3ccc(F)cc3)ccc21,–,inactive: 2.04%
COc1ccccc1C(=O)NC(=O)CSc1c(Cl)cccc1Cl,"inconclusive: 35.5 µM [inhibitor, partial curve, poor fit]",–
CC(CCc1ccccc1)NC(=O)CSc1nc2cc(S(=O)(=O)N3CCOCC3)ccc2o1 (stereo unspecified),"inconclusive: 89.1 µM [inhibitor, partial curve, poor fit]",–
CCOCc1cnc(C)nc1NCC(=O)c1c(C)[nH]c2ccccc12,"inconclusive: 1.78 µM [inhibitor, full curve, poor fit]",–
CO[C@@H]1[C@@H](OC(N)=O)[C@@H](O)[C@H](Oc2ccc3c(O)c(NC(=O)c4ccc(O)c(CC=C(C)C)c4)c(=O)oc3c2C)OC1(C)C,"inconclusive: 44.7 µM [inhibitor, partial curve, poor fit]",–
O=C(COC(=O)c1c(F)cccc1F)NC(=O)NCc1ccccc1,–,inactive: -0.214%
COc1cccc(-c2cc3nc(NCc4ccc5occc5c4)n(C)c(=O)c3s2)c1,"inconclusive: 7.08 µM [inhibitor, full curve, poor fit]",–
